# Some of the results follow.
# B1: HFR-3 (Triticum aestivum) (protein)
# chain: MKGLLLCALALAFAAVTTHAQLQSCPTRCGKQADGMECPNNLCCSKDGYCGLGVDYCSAGAGCQSGACYDNKICGAQANGTLCRNNHCCSSGGRCGYGREYCSNGCQGGPCWADLKCGHLDNGKLCPNNLCCSQYGYCGLGPEFCGTGCQNGACSTDKPCGNKANGAPCTNNYCCSQYGSCGLGKDYCGTGCQNGACN
# What was measured:
# Assay in all cases: glycan array binding signal (z-score within array); higher = stronger binding
# Settings in all cases: glycan notation: IUPAC condensed, linker removed
# [1] = target: Neu5Ac(a2-3)Gal(b1-3)GalNAc(b1-3)Gal(a1-4)Gal(b1-4)Glc
# Method in brief: (§1)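 Negative Z-scores can be read as non-binding. The Z-score is calculated within each array and then averaged across arrays of one protein sequence at different concentrations or buffers and across linkers. Arrays, 3228 in all, were curated from the Consortium for Functional Glycomics database and kept only where the protein sequence was available.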
# [2] = target: Neu5Ac(a2-3)Gal(b1-3)GalNAc(b1-4)[Neu5Ac(a2-3)]Gal(b1-4)Glc
# Method in brief: as §1
# [3] = target: Neu5Ac(a2-3)Gal(b1-3)GalNAc(b1-4)[Neu5Ac(a2-8)Neu5Ac(a2-3)]Gal(b1-4)Glc
# Method in brief: as §1
# [4] = target: Neu5Ac(a2-3)Gal(b1-3)GalNAc6S
# Method in brief: as §1
# [5] = target: Neu5Ac(a2-3)Gal(b1-3)GlcNAc
# Method in brief: as §1
# [6] = target: Neu5Ac(a2-3)Gal(b1-3)GlcNAc(b1-2)Man
# Method in brief: as §1
# [7] = target: Neu5Ac(a2-3)Gal(b1-3)GlcNAc(b1-2)Man(a1-3)[GlcNAc(b1-4)][Neu5Ac(a2-3)Gal(b1-3)GlcNAc(b1-2)Man(a1-6)]Man(b1-4)GlcNAc(b1-4)GlcNAc
# Method in brief: as §1
# [8] = target: Neu5Ac(a2-3)Gal(b1-3)GlcNAc(b1-2)Man(a1-3)[Neu5Ac(a2-3)Gal(b1-3)GlcNAc(b1-2)Man(a1-6)]Man(b1-4)GlcNAc(b1-4)GlcNAc
# Method in brief: as §1
# [9] = target: Neu5Ac(a2-3)Gal(b1-3)GlcNAc(b1-3)Gal(b1-3)GlcNAc
# Method in brief: as §1
# [10] = target: Neu5Ac(a2-3)Gal(b1-3)GlcNAc(b1-3)Gal(b1-4)GlcNAc
# Method in brief: as §1
# [11] = target: Neu5Ac(a2-3)Gal(b1-3)GlcNAc(b1-3)GalNAc
# Method in brief: as §1
# [12] = target: Neu5Ac(a2-3)Gal(b1-3)GlcNAc(b1-4)Gal(b1-4)Glc
# Method in brief: as §1
# [13] = target: Neu5Ac(a2-3)Gal(b1-3)GlcNAc(b1-6)GalNAc
# Method in brief: as §1
# [14] = target: Neu5Ac(a2-3)Gal(b1-3)GlcNAc6S
# Method in brief: as §1
# [15] = target: Neu5Ac(a2-3)Gal(b1-3)[Fuc(a1-4)]GlcNAc
# Method in brief: as §1
# [16] = target: Neu5Ac(a2-3)Gal(b1-3)[Fuc(a1-4)]GlcNAc(b1-3)Gal(b1-3)[Fuc(a1-4)]GlcNAc
# Method in brief: as §1
# [17] = target: Neu5Ac(a2-3)Gal(b1-3)[Fuc(a1-4)]GlcNAc(b1-3)Gal(b1-4)[Fuc(a1-3)]GlcNAc
# Method in brief: as §1
# [18] = target: Neu5Ac(a2-3)Gal(b1-3)[GlcNAc(b1-6)]GalNAc
# Method in brief: as §1
# [19] = target: Neu5Ac(a2-3)Gal(b1-3)[Neu5Ac(a2-6)]GalNAc
# Method in brief: as §1
# [20] = target: Neu5Ac(a2-3)Gal(b1-3)[Neu5Ac(a2-6)]GlcNAc(b1-3)[Fuc(a1-3)[Gal(b1-4)]GlcNAc(b1-6)]Gal(b1-4)Glc
# Method in brief: as §1
# [21] = target: Neu5Ac(a2-3)Gal(b1-3)]Neu5Ac(a2-3)Gal(b1-4)]GlcNAc
# Method in brief: as §1
# Neu5Ac(a2-3)Gal(b1-4)Glc = target: Neu5Ac(a2-3)Gal(b1-4)Glc
# Method in brief: as §1
binder,measurement,setting,value
B1,glycan array binding signal (z-score),[1],-0.628
same,glycan array binding signal (z-score),[2],-1.1
same,glycan array binding signal (z-score),[3],-0.799
same,glycan array binding signal (z-score),[4],-0.641
same,glycan array binding signal (z-score),[5],0.051
same,glycan array binding signal (z-score),[6],1.12
same,glycan array binding signal (z-score),[7],-0.749
same,glycan array binding signal (z-score),[8],-0.846
same,glycan array binding signal (z-score),[9],-0.914
same,glycan array binding signal (z-score),[10],-0.984
same,glycan array binding signal (z-score),[11],-0.784
same,glycan array binding signal (z-score),[12],-1.22
same,glycan array binding signal (z-score),[13],-0.998
same,glycan array binding signal (z-score),[14],-0.174
same,glycan array binding signal (z-score),[15],1.94
same,glycan array binding signal (z-score),[16],0.294
same,glycan array binding signal (z-score),[17],0.911
same,glycan array binding signal (z-score),[18],-0.222
same,glycan array binding signal (z-score),[19],0.141
same,glycan array binding signal (z-score),[20],-0.504
same,glycan array binding signal (z-score),[21],-1.15
same,glycan array binding signal (z-score),Neu5Ac(a2-3)Gal(b1-4)Glc,0.95

# Reprinted from the listing (2 entries):
binder,measurement,setting,value
B1,glycan array binding signal (z-score),[3],-0.799
same,glycan array binding signal (z-score),[4],-0.641

# Source: the supplement of paper PMC8728848
